Among all 330,000 compounds or so, about 1,000 (0.3%) were called active. Inconclusive means that the source gave no clear call. Such entries were picked first, then a sample of the others. Calls come from the whole dose curve; as a rule, active = well fitted inhibition curve with a large enough effect; inconclusive = small, poorly fitted or top-dose-only effect; inactive = no such curve, though single readings can be large or run the other way; tested in mouse RAW 264.7 cells. Potencies of inconclusive entries are doubtful fits and often do not repeat.
Test: qHTS for Inhibitors of Cell Surface uPA Generation; note: nearly all actives have a fitted effect of over 55% in size
Conditions: cell surface uPA generation assay; series mostly up to 38.3 µM
How it was run: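 RAW 264.7 cells (4000/well) were plated overnight at 37 C and then given compounds in a 1:5 series (up to 38.3 uM final) plus reagent for 24 h. Intracellular ATP was measured by ATP-Lite luminescence and stays elevated when uPA-dependent LF entry is blocked.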
Potency is the fitted concentration of half-maximal effect.

SMILES	Potency
C=CCNC(=S)NNC(=O)c1cc(O)ccc1O	inactive
COc1cc(NC(=S)NCCN2CCOCC2)cc(OC)c1OC	inconclusive: 1 µM [inhibitor, full curve, poor fit]
Cn1ccs/c1=N\C(=O)Nc1ccccc1	inconclusive: 4.47 µM [inhibitor, partial curve, poor fit]
N/C(=N\OC(=O)c1ccco1)c1ccccn1	inconclusive: 7.94 µM [inhibitor, partial curve, poor fit]
CCCOc1ccc(/C=C/c2c([N+](=O)[O-])c(=O)n(C)c(=O)n2C)cc1	inconclusive: 14.1 µM [inhibitor, partial curve, poor fit]
COc1cccc(CNC(=O)Cc2ccc(NC(=O)C3=C(C)OCCS3)cc2)c1	inconclusive: 7.94 µM [inhibitor, partial curve]
CCCOc1ccc(C2Nc3cccc4cccc(c34)N2)cc1	inactive
O=C(Cc1cccc(NC(=O)C2CCN(S(=O)(=O)c3cccc([N+](=O)[O-])c3)CC2)c1)Nc1cccc(C(=O)N2CCCCC2)c1	inactive
CCOC(=O)[C@@H]1[C@H]2COc3ccccc3[C@@H]2N2C(=O)N(c3ccccc3)C(=O)[C@@]12C	inactive
O=c1c(C=NCCCO)c(-c2ccccc2)[nH]n1-c1nc2ccccc2s1	inconclusive: 11.2 µM [inhibitor, partial curve, poor fit]
COc1ccc(Nc2nc3cc(C)ccc3cc2C#N)c(OC)c1	inconclusive: 0.794 µM [inhibitor, full curve, poor fit]
Cc1cc2[nH]c3c(c[n+](C)c4ccccc34)c2cc1C	inconclusive: 0.708 µM [inhibitor, full curve, poor fit]
C=CCn1c(O)c(CN2CCN(Cc3ccccc3)CC2)c(C)c(C#N)c1=O	inactive
Cc1ccc(NC(=S)NC(=O)CC2CC(C)(C)OC2=O)cc1 (configuration not stated)	inconclusive: 0.316 µM [inhibitor, full curve, poor fit]
CC1=C(C)C(=O)C(N2CCOCC2)=CC1=O	inconclusive: 7.94 µM [inhibitor, partial curve, poor fit]
CC(C)c1cccc(-c2ccc3c(c2)S(=O)(=O)c2cccc(C(=O)NCc4ccccc4Cl)c2C3=O)c1	inconclusive: 31.6 µM [inhibitor, single point]
Cc1ccc2c(c1)N(C)/C(=C/c1cccc[n+]1CCO)S2	inconclusive: 5.62 µM [inhibitor, partial curve, poor fit]
C[C@H]1CN=C(N(C)C)N1CCCC1CCCCC1	inconclusive: 11.2 µM [inhibitor, partial curve, poor fit]
Cc1ccc(C(=O)NNC(=O)c2ccccc2)cc1S(=O)(=O)N1CCCCC1	inactive
COc1ccc(-n2cc(C(=O)c3cc(Cl)ccc3O)cc(C#N)c2=O)cc1	inactive
c1ccc(-c2csc3ncnc(N4CCc5ccccc5C4)c23)cc1	inactive
Cc1ccc(-n2[nH]c(C)c(C=Nc3ccc(S(=O)(=O)Nc4nccs4)cc3)c2=O)cc1C	inactive
COc1ccc(/C=N/NC(=O)c2cccc(O)c2)cc1Cn1nc(C)c([N+](=O)[O-])c1C	inconclusive: 8.91 µM [inhibitor, single point]

SMILES	Potency
CCOc1ccc(NS(=O)(=O)c2ccc(-c3cnc(C4CC4)o3)cc2)cc1	inconclusive: 4.47 µM [inhibitor, partial curve, poor fit]
COc1cccc(-c2nnc(Nc3nc4c(F)cccc4s3)o2)c1	inconclusive: 7.08 µM [inhibitor, partial curve]
NC(=NCCc1ccccc1)NC(=O)c1cc(Cl)ccc1O	inactive
COc1cc2c(cc1C=O)OC(C)C2 (configuration not stated)	inconclusive: 12.6 µM [inhibitor, single point]
O=C(c1cccc(S(=O)(=O)N2CCCCC2)c1)N1CCN(Cc2ccccc2)CC1	inconclusive: 0.0126 µM [inhibitor, full curve, poor fit]
CC[C@]12c3[nH]c4ccccc4c3CCN1C(=O)C(CC(=O)NCC13CC4CC(CC(C4)C1)C3)C[C@@H]2C(=O)N1CCN(C(=O)C2CC2)CC1 (some centres not stated)	inconclusive: 28.2 µM [inhibitor, single point]
COc1ccccc1-c1nnc(NC(=O)C(C)Sc2nncn2C)s1 (configuration not stated)	inconclusive: 10 µM [inhibitor, partial curve, poor fit]
O=C1CC(c2ccccc2F)c2cc3c(cc2N1)CCC3 (configuration not stated)	inconclusive: 5.01 µM [inhibitor, partial curve, poor fit]
Cc1ccnc(NCc2c(O)ccc3ccccc23)c1	inconclusive: 14.1 µM [inhibitor, single point]
N#CCCN(C(=O)CCl)c1cccc(Cl)c1	inconclusive: 7.94 µM [inhibitor, partial curve, poor fit]
CCCCc1nnc(NC(=O)CN2C(=O)NC3(CCCCC3)C2=O)s1	inactive
Cc1nnc(NC(=O)c2ccc3ccccc3c2)o1	inactive
COc1cccc(-c2ccc(NC(=O)C3CCCN(Cc4cnc(C)n4C)C3)cc2)c1 (configuration not stated)	inactive
Cc1nn(C)cc1C(C(=O)NC1CCCCC1)N(CCc1ccccc1)C(=O)c1cnccn1 (configuration not stated)	inconclusive: 5.62 µM [inhibitor, partial curve, poor fit]
O=C1C(CCCNC(=S)NCc2ccccc2)NC(=S)N1Cc1ccccc1 (configuration not stated)	inactive
Cc1c(N(C)S(=O)(=O)c2cccc(C(=O)NCC3CCCO3)c2)c(=O)n(-c2ccccc2)n1C (configuration not stated)	inactive
COCCNCCCCSc1ccc(Cl)cc1	inconclusive: 5.01 µM [inhibitor, partial curve, poor fit]
COc1ccc(Nc2oc(-c3ccc(OC)cc3)nc2C#N)cc1	inactive
Cc1ccc(C)c(NC(=O)c2cccc(Oc3ccc([N+](=O)[O-])cc3Cl)c2)c1	inconclusive: 11.2 µM [inhibitor, partial curve, poor fit]
O=S(=O)(NN1CCOCC1)c1ccc(Br)cc1	inactive
CC(C)(C)C(=O)O/N=C(\N)COc1cccc(Cl)c1	inactive
Cc1ccc(C(=O)C(C)OC(=O)Cc2n[nH]c(=O)c3ccccc23)cc1 (configuration not stated)	inconclusive: 6.31 µM [inhibitor, single point]
COc1cc(NC(=S)N2CCN(C)CC2)c(OC)cc1Cl	inconclusive: 0.316 µM [inhibitor, full curve, poor fit]

13 of the compounds above, bar-delimited.
SMILES | Potency
C=CCNC(=S)NNC(=O)c1cc(O)ccc1O | inactive
CCOC(=O)[C@@H]1[C@H]2COc3ccccc3[C@@H]2N2C(=O)N(c3ccccc3)C(=O)[C@@]12C | inactive
CC1=C(C)C(=O)C(N2CCOCC2)=CC1=O | inconclusive: 7.94 µM [inhibitor, partial curve, poor fit]
C[C@H]1CN=C(N(C)C)N1CCCC1CCCCC1 | inconclusive: 11.2 µM [inhibitor, partial curve, poor fit]
COc1ccc(/C=N/NC(=O)c2cccc(O)c2)cc1Cn1nc(C)c([N+](=O)[O-])c1C | inconclusive: 8.91 µM [inhibitor, single point]
COc1cc2c(cc1C=O)OC(C)C2 (configuration not stated) | inconclusive: 12.6 µM [inhibitor, single point]
O=C(c1cccc(S(=O)(=O)N2CCCCC2)c1)N1CCN(Cc2ccccc2)CC1 | inconclusive: 0.0126 µM [inhibitor, full curve, poor fit]
CC[C@]12c3[nH]c4ccccc4c3CCN1C(=O)C(CC(=O)NCC13CC4CC(CC(C4)C1)C3)C[C@@H]2C(=O)N1CCN(C(=O)C2CC2)CC1 (some centres not stated) | inconclusive: 28.2 µM [inhibitor, single point]
O=C1CC(c2ccccc2F)c2cc3c(cc2N1)CCC3 (configuration not stated) | inconclusive: 5.01 µM [inhibitor, partial curve, poor fit]
Cc1nn(C)cc1C(C(=O)NC1CCCCC1)N(CCc1ccccc1)C(=O)c1cnccn1 (configuration not stated) | inconclusive: 5.62 µM [inhibitor, partial curve, poor fit]
O=C1C(CCCNC(=S)NCc2ccccc2)NC(=S)N1Cc1ccccc1 (configuration not stated) | inactive
COc1ccc(Nc2oc(-c3ccc(OC)cc3)nc2C#N)cc1 | inactive
Cc1ccc(C(=O)C(C)OC(=O)Cc2n[nH]c(=O)c3ccccc23)cc1 (configuration not stated) | inconclusive: 6.31 µM [inhibitor, single point]

Next results

SMILES	Potency
CCCOC(=O)Oc1ccc2c(=O)c(Oc3cc(C)cc(C)c3)coc2c1	inconclusive: 12.6 µM [inhibitor, single point]
Cc1ccc(-n2nc3c(=O)n(CCCC(=O)N4CCC(C(N)=O)CC4)nc(C)c3c2C)cc1	inactive
CC/C(=N\Nc1ccccc1[N+](=O)[O-])c1ccc(O)cc1	inactive
COc1ccc(-c2cc3c(=O)n(CC(=O)NCCCN4CCN(Cc5ccccc5)CC4)ncn3n2)cc1	inconclusive: 1.26 µM [inhibitor, partial curve, poor fit]
O=C(CNc1cccc(C(F)(F)F)c1)Nc1cccc(S(=O)(=O)N2CCCC2)c1	inconclusive: 8.91 µM [inhibitor, single point]
O=[N+]([O-])c1ccc(Sc2ncc3ccccn23)nc1	inconclusive: 8.91 µM [inhibitor, single point]
CC(C(=O)NC1CCCC1)N1CCN(Cc2ccccc2)CC1 (configuration not stated)	inactive
CC1=C(C(=O)OCc2ccc3c(c2)OCO3)C(c2ccc(Cl)cc2)NC(=O)N1 (configuration not stated)	inconclusive: 1 µM [inhibitor, full curve]
COc1ccc(C)cc1Nc1n[n+](-c2ccccc2)c(-c2c(OC)ccc3ccccc23)s1	inconclusive: 28.2 µM [inhibitor, single point]
O=C1C(Cl)=C(N2CCN(Cc3ccccc3)CC2)C(=O)N1Cc1ccccc1	inactive
C=CCOc1cccc(/C=C/c2nc3ccccc3c(=O)[nH]2)c1	inconclusive: 12.6 µM [inhibitor, single point]
Cc1cc2oc3cc(NCCC4CCCN4C)ccc3c(=O)c2cc1C (configuration not stated)	inconclusive: 12.6 µM [inhibitor, single point]
COc1ccc(NS(=O)(=O)c2cccc(C(=O)NNC(=O)CNC(=O)c3ccccc3)c2)cc1	inconclusive: 0.891 µM [inhibitor, single point]
COc1ccc(C2CC(c3ccccc3C(F)(F)F)=NN2c2ccc(S(N)(=O)=O)cc2)cc1 (configuration not stated)	inconclusive: 14.1 µM [inhibitor, single point]
CCCCN1C(=O)/C(=C2\SC(N3CCOCC3)=NC2=O)c2ccccc21	inconclusive: 0.316 µM [inhibitor, full curve, poor fit]
CCCCCC(=O)N1CC2(CC(c3cccc(NC(=O)COc4ccc(Cl)cc4)c3)=NO2)C[C@@H]1C(N)=O (some centres not stated)	inconclusive: 12.6 µM [inhibitor, single point]
Fc1ccc(-c2nc3ccccc3[nH]2)cc1	inconclusive: 3.98 µM [inhibitor, partial curve]
COc1ccc(-c2csc(NC(=O)CCS(=O)(=O)c3ccccc3)n2)c(OC)c1	inconclusive: 7.94 µM [inhibitor, partial curve, poor fit]
NC(=O)c1oc2ccccc2c1NC(=O)c1ccco1	inconclusive: 31.6 µM [inhibitor, single point]
Cc1noc(C)c1CSCC(=O)N(C)CC(=O)Nc1ccc(F)c(F)c1F	inactive
Cc1ccc(C2=NNC(c3cccc(F)c3)S2)cc1 (configuration not stated)	inconclusive: 11.2 µM [inhibitor, single point]

Reference: PubChem BioAssay AID540303 (National Center for Advancing Translational Sciences (NCATS), 2011)
